# For at least one compound, name, drawing or mass did not settle the structure. Numbered stars: 1 amine (or outer) side, 2 acyl side, 3 side chain; on linkers, the order of the positions; unused ones are H or OH. Bridge positions count the residues as written; N and C are the ends. Peptide text beside a SMILES is read from it. X1 = O=C(c1cc(/C(=N/O)[*:2])cc(/C(=N/O)[*:3])c1)[*:1]
# Molecular target: T1, SARS-CoV-2 Spike RBD (Severe acute respiratory syndrome coronavirus 2, UniProt P0DTC2)
# T1 construct: a 96-well plate was coated with 100 nM of SARS-CoV-2 Spike RBD
# Assay: ELISA binding of biotinylated bicyclic peptides to plate-coated spike RBD
# Conditions: curve fitting, 100 nM coated Spike RBD
row,SMILES,Kd [nM]
1,"CC[C@H](C)[C@@H]1NC(=O)[C@H](C)NC(=O)c2cc3cc(c2)/C(=N/O)SC[C@H](NC(=O)[C@H](CO)NC(=O)[C@H](CC(=O)O)NC1=O)C(=O)N[C@@H](CCCNC(=N)N)C(=O)N[C@@H](Cc1ccc(O)cc1)C(=O)N[C@@H](CC(N)=O)C(=O)N[C@@H](Cc1c[nH]cn1)C(=O)NCC(=O)N[C@@H](Cc1c[nH]c2ccccc12)C(=O)N[C@@H](CCC(N)=O)C(=O)N[C@H](C(N)=O)CS/C3=N\O [NP8, AIDSCRYNHGWQC (SEQ ID NO: 40)] (AIDSCRYNHGWQC-NH2; linker N-5-13 via X1)",3000
2,"CC[C@H](C)[C@@H]1NC(=O)[C@H](C)NC(=O)c2cc3cc(c2)/C(=N/O)SC[C@H](NC(=O)[C@H](CCC(=O)O)NC(=O)[C@H](CO)NC1=O)C(=O)N[C@@H](CC(N)=O)C(=O)N[C@@H](Cc1c[nH]cn1)C(=O)N[C@@H]([C@@H](C)CC)C(=O)N[C@@H](C)C(=O)N[C@@H](CCC(=O)O)C(=O)N[C@@H](Cc1c[nH]c2ccccc12)C(=O)N[C@@H](CCSC)C(=O)N[C@H](C(N)=O)CS/C3=N\O [NP10, AISECNHIAEWMC (SEQ ID NO: 41)] (AISECNHIAEWMC-NH2; linker N-5-13 via X1)",400

# Source: patent US20260132547A1, “NOVEL PHAGE LIBRARIES OF BICYCLIC PEPTIDES” (priority 2024, published 2026)
